# Percent effect of library compounds

Chains of the proteins cited; added tags and fusions are not shown. Residues count along the entry.
UniProt P9WNZ1, whole entry: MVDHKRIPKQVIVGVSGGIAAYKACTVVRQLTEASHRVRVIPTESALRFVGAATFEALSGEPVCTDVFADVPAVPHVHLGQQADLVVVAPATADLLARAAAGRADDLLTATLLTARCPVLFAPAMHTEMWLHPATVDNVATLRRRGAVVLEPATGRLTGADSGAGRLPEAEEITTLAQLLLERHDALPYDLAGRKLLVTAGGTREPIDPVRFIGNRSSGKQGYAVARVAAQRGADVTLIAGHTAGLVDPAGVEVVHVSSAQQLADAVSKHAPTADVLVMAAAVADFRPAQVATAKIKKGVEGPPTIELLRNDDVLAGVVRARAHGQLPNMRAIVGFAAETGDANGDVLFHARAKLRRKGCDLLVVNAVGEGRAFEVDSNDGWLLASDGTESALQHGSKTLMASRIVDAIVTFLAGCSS
UniProt Q8IDJ8, 1-583: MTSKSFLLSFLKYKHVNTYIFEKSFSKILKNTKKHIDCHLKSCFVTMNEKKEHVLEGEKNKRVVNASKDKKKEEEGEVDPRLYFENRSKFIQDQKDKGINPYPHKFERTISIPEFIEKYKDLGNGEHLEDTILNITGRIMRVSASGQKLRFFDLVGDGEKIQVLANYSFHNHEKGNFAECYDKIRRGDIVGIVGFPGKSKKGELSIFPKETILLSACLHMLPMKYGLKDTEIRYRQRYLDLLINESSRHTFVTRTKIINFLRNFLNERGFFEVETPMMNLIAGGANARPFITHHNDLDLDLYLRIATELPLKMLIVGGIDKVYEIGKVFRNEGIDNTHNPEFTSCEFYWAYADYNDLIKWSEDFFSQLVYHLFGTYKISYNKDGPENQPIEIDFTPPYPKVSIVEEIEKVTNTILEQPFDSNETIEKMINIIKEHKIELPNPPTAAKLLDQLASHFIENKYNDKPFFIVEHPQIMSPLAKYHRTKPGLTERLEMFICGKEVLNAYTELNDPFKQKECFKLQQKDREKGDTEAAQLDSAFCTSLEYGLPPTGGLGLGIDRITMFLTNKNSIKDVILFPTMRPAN
UniProt A4I591, 1-473: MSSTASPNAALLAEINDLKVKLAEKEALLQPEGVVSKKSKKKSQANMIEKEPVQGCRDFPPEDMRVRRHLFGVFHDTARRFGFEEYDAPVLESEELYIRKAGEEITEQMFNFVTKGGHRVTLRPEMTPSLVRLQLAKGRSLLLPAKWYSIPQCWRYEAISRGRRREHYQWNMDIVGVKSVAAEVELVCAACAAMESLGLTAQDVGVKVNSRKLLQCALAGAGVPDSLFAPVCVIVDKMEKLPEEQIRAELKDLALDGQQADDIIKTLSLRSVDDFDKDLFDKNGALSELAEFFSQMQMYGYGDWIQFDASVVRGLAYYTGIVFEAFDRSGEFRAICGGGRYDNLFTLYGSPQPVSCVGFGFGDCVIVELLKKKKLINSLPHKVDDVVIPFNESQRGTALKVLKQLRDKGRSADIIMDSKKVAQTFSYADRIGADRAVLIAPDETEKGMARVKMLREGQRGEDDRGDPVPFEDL

Results are given as percent effect. How 0% and 100% were set is not recorded. Most values in the screen are low, and negative values occur. This is an unselected part of the compounds tested. Two or more numbers in one place are separate tests of the same structure; such repeats can differ widely. A dash means the value is not listed here; it may have been measured.

CoaBC: 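Enzyme assay of CoaBC with a phosphate dye (Biomol Green) read at 650 nm. Target: Coenzyme A biosynthesis protein CoaBC, Mycobacterium tuberculosis (UniProt P9WNZ1). Compounds at 30 µM. Direction is inferred from only a few compounds that gave an IC50; most scored high, so higher reads as stronger inhibition. Most strong results did not repeat in a second test. Size under these conditions: about 67,000 compounds, about 40 of them at 50% or above in at least one test.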
PfKRS1: 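Lysine-tRNA ligase, Plasmodium falciparum 3D7 (UniProt Q8IDJ8). Enzyme assay of the cytosolic lysyl-tRNA synthetase in 384-well plates, read by luminescence. Compounds at 30 µM. Direction is inferred from only a few compounds that gave an IC50; most scored high, so higher reads as stronger inhibition. Size under these conditions: about 69,000 compounds, about 49 of them at 50% or above in at least one test.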
LiHisRS: 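Enzyme assay of histidyl-tRNA synthetase; the read-out is not stated. Target: Histidine-tRNA ligase, Leishmania infantum (UniProt A4I591). Compounds at 30 µM. Higher reads as stronger inhibition (inferred: compounds with an IC50 in retests scored well above the rest). The assay is labelled LdHisRS but filed under L. infantum. About 69,000 compounds were tested under these conditions; 0.6% (about 410) showed 50% or more at least once.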

SMILES,CoaBC,PfKRS1,LiHisRS
COc1ccc([C@@H]2CN(Cc3ccncc3)C[C@H]2N(C)C)cc1,5.679,1.467,-4.196
O=S(=O)(NCC1(c2cccs2)CCOCC1)c1cccnc1,5.765,6.76,14.67
Cc1ccccc1N1CC2(CCN(S(=O)(=O)C3CC3)C2)CC1=O (configuration not stated),2.418,1.9,17.07
C/C=C(\C)CN1C[C@@H](NC(=O)c2ccc(F)c(F)c2)C[C@H]1C(=O)NCC,-,-2.907,14.17
CC(c1ccccn1)N(C)Cc1cc2cc3c(cc2[nH]c1=O)OCO3 (configuration not stated),7.143,-0.4988,21.31
Cc1nc(NC(=O)c2nn(-c3ccc(F)cc3C)cc2O)n[nH]1,1.453,1.203,8.696
COc1ccc(F)cc1C(=O)N(C)[C@@H]1CC[C@@H](O)[C@@H]1O,5.938,6.552,9.859
CSCC(=O)N(C)Cc1cnn(-c2ccc(F)cc2)c1,-0.6593,1.889,2.857
Cc1cnc2c(c1NCc1cccs1)c(=O)n(C)c(=O)n2C,4.071,7.751,20.51
Cc1nc2[nH]cnc(Nc3cnn(C)c3)c-2n1,1.139,-3.848,42.5
CCOc1ccccc1CNC(=O)c1cnn(CC)c1C(F)(F)F,-3.797,-2.737,0
Cc1cc(NCCSc2nccn2C)n2ncnc2n1,-3.367,-4.388,-3.191
O=C(NCc1ccco1)[C@H]1C[C@H]2OCC[C@H]2N(S(=O)(=O)C2CC2)C1,2.665,7.665,18.87
O=C1CC2(CCN(S(=O)(=O)c3cccs3)C2)CN1c1ccccc1 (configuration not stated),5.079,0.6417,17.07
O=C1NC2(CCN(Cc3ccoc3)CC2)CC1c1ccncc1 (configuration not stated),-11.76,6.659,-3.636
COCCN1CCC(CN(CC2CCCO2)C(=O)CCNC(C)=O)CC1 (configuration not stated),2.11,5.101,6.731
NCCCC(=O)NCC1(O)CCN(c2ccnc3cccnc23)C1 (configuration not stated),0.7884,0.1281,18.84
N#Cc1ccc(SCCCO)c(F)c1,10.02,6.746,14.91
Cc1ccc(-c2nc(CC(=O)NCC3CCCOC3)cs2)o1 (configuration not stated),2.823,5.279,15.79
CCN(CC)C(=O)CNC(=O)c1c[nH]c2ccc(OC)cc12,3.831,0.2291,18.18
CCN(Cc1nc(C)no1)C(=O)C1CC(=O)N(Cc2cccnc2)C1 (configuration not stated),8.254,1.327,8.197
CO[C@@H]1CN(c2ccccc2)S(=O)(=O)[C@@]12CCN(C)C2,1.695,3.991,0
CNC(=O)C1(CCCc2ccccn2)CCN1Cc1coc(C)n1 (configuration not stated),1.699,-0.4976,-8.571
Cc1nc(N(C)C)nc2c1COCC21CCN(C(=O)NCC(C)C)C1 (configuration not stated),3.294,0.01167,6.849
Cc1nc(CN2C[C@@H]3CN(C(=O)Cc4ccccn4)C[C@@H]3C2)cs1,2.847,3,15.84
CCOc1cccc(CNc2cccc(C(=O)OC)c2)c1O,4.293,-1.624,0
CC1(C)CC(C(=O)N2CCC3(CCC(=O)N(C4CC4)C3)CC2)CCO1 (configuration not stated),-1.84,5.128,3.922
Cc1ccc(-c2cc(-c3c(C)nn(CCO)c3C)c(C#N)c(N)n2)cc1,1.901,1.57,3.797
Cc1nnc(CN(C)S(=O)(=O)c2ccc(Br)cc2Cl)n1C,101.1 and 14.81,0.9356,22.22
COc1ccc2c(c1)CN(c1nc(C)cc(C)n1)CC2,10.33,3.02,26.67
Cc1nc(C)n(CC2CCCN(CCc3ccccc3)C2)n1 (configuration not stated),-2.857,-0.5923,10.53
O=c1ccc(-n2ccnc2)nn1CCNS(=O)(=O)c1ccc(F)c(Cl)c1,-10.78,2.411,17.39
O=C1OCCN1CCS(=O)(=O)c1cccc(Cl)c1,-,0.2236,19.17
CC(=O)N1CCN(C(=O)NC(C)C)CC2(CC(=O)N(C)C2)C1 (configuration not stated),0,4.613,23.08
O[C@H]1[C@H](n2cc(-c3cccnc3)nn2)c2ccccc2C12CCNCC2,-37.55,6.93,20.19
Cc1cc(NS(=O)(=O)c2ccc(C(=O)O)cc2F)ccc1F,9.565,-0.427,0
Cc1nc(C)c(C(=O)N2CCC(O)(Cn3ccc4ccncc43)CC2)s1,-0.8674,0.54,4
Cc1cc(Cl)ccc1-n1ncc(C(=O)NCC2COC(C)(C)O2)c1N (configuration not stated),0.7282,1.109,21.78
CSc1ccc(CNc2ccccc2CN2CCC(O)CC2)cc1,-,2.229,11.43
O=C(O)c1ccc(F)c(S(=O)(=O)N2CCOc3ccccc32)c1,-2.632,-0.5154,4.63
Cc1ccc(C(=O)N2CCCC3(CCCC(=O)N3C)C2)cc1F (configuration not stated),4.353,1.472,21.95
O=C(O)c1ccccc1C1CCN(C2Cc3ccccc3C2)C1 (configuration not stated),1.653,5.706,17.33
COc1cc(O)ccc1CN1CCN(C2CCc3ccccc3C2)CC1 (configuration not stated),3.951,7.638,13.99

For reference, 4 entries once more:

* O=c1ccc(-n2ccnc2)nn1CCNS(=O)(=O)c1ccc(F)c(Cl)c1 | CoaBC: -10.78%; PfKRS1: 2.411%; LiHisRS: 17.39%
* CNC(=O)C1(CCCc2ccccn2)CCN1Cc1coc(C)n1 (configuration not stated) | CoaBC: 1.699%; PfKRS1: -0.4976%; LiHisRS: -8.571%
* CO[C@@H]1CN(c2ccccc2)S(=O)(=O)[C@@]12CCN(C)C2 | CoaBC: 1.695%; PfKRS1: 3.991%; LiHisRS: 0%
* CC(c1ccccn1)N(C)Cc1cc2cc3c(cc2[nH]c1=O)OCO3 (configuration not stated) | CoaBC: 7.143%; PfKRS1: -0.4988%; LiHisRS: 21.31%

Data taken from ChEMBL document CHEMBL3988442, “University of Dundee, Small-Polar-MMV Screening Library” (2021).